The test has as its target T1, human IL-13 (human, UniProt P35225 35-146, limits assumed, biotinylated on the Biacore chip).
T1 construct: also called interleukin-13; biotinylated IL-13
Nature of the test: IL-13 Biacore (SPR). (In SPR one partner is held on a chip, and binding of the other changes the refractive index at the surface.)

Chains of the proteins cited; added tags and fusions are not shown. Residues count along the entry.
UniProt P35225, residues 35-146: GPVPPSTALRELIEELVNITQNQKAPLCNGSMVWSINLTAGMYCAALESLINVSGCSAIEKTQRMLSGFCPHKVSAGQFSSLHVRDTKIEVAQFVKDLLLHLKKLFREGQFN

The values that follow come from patent publication US20110159003A1 (DOMANTIS, published 2011).

These are yes or no findings as the source states them, for the method shown. Some binding calls cover weakened binding; strength is not graded here.

B1: DOM9-112-210 ASTKGPS-DOM10-416 (bispecific antibody)
chain: EVQLLESGGGLVQPGGSLRLSCAASGFTFRNFGMGWVRQAPGKGLEWVSWIISSGTETYYADSVKGRFTISRDNSKNTLYLQMNSLRAEDTAVYYCAKSLGRFDYWGQGTLVTVSSASTKGPSEVQLLESGGGLVQPGGSLRLSCAASGFTFKGSEMDWVRQAPGKGLEWVSTISADGRETYYADSVKGRFTISRDNSKNTLYLQMNSLRAEDTAVYYCAKSYTSFDYWGQGTLVTVSS
On to B1, for which the binding result is given as “binds”.
